Test [1] has as its target C5a-like receptor 2 (C5L2), the second C5a receptor (UniProt Q9P296). The test is described as follows: flow cytometry on cells; inhibition of ligand binding: transfected cells co-incubated with rCHIPS(28-149) and His6-C5a (50 nM), His6-C5a des Arg (50 nM) or FITC-formyl peptide (500 nM); 30 min at 4 °C in PBS + 0.1% BSA, 0.2% NaN3; His6 ligands detected with anti-RGSHis6 and anti-mouse IgG-FITC; only the binder purified. On the technique in general: A flow cytometer gives signals particle by particle.

Protein sequences, listed by entry. Tags and fused reporters are not part of them. Residues count along the entry.
UniProt Q9P296: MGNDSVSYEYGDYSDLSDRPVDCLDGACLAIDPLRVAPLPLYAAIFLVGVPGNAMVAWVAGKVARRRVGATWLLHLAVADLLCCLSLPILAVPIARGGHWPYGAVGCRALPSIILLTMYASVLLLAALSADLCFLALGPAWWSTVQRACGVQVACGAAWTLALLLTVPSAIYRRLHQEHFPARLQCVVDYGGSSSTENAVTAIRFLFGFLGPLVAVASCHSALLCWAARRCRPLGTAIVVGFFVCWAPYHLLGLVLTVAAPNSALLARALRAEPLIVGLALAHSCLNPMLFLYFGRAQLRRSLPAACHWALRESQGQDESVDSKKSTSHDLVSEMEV
UniProt P21730: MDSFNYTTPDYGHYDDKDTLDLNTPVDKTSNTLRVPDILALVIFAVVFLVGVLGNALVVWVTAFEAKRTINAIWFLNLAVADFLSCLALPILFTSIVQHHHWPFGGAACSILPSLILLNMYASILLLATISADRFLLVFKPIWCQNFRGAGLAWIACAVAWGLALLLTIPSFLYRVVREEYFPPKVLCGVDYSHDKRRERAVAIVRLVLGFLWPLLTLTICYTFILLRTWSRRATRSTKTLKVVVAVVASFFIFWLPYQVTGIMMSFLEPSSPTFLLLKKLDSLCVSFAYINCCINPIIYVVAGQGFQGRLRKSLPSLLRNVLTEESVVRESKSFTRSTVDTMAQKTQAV
UniProt P01031, residues 678-751: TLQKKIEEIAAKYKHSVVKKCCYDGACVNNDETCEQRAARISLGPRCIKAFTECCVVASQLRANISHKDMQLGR

Test [2] addresses human C5a receptor (C5aR) (human) (UniProt P21730). The description is as above.

No constants are given. Whether binding was seen depends on the method and setting. Some results given as binding are weak or reduced against the parent protein; the word gives no strength.

As to “His6-tagged C5a (from UniProt P01031 678-751) (ligand)”, the binding entry in test [1] and in test [2] was “binds” throughout.

Source of the values: article PMC2646901.
